These are yes or no findings as the source states them, for the method shown. In cells and extracts the contact can be indirect. Binding calls can cover weak binding; strength is not graded here.

The chains behind the UniProt entries cited, without tags or fusion partners. Where a name states a change or a piece, a line headed by the entry shows the natural chain unless it says otherwise.
UniProt Q8I2D9: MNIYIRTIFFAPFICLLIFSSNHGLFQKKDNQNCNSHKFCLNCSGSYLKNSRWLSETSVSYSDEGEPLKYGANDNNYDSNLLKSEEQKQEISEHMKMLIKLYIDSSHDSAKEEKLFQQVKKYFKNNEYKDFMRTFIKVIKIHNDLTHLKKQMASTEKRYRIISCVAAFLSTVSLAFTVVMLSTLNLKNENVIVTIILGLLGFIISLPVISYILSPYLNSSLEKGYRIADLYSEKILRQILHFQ
UniProt Q8IEJ0: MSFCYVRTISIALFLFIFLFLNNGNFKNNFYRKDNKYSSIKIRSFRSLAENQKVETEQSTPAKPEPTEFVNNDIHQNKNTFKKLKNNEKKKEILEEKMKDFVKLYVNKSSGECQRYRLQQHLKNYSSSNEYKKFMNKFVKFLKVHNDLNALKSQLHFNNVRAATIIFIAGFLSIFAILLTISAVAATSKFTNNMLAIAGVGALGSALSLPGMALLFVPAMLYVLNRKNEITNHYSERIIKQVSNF
UniProt Q6V0W7: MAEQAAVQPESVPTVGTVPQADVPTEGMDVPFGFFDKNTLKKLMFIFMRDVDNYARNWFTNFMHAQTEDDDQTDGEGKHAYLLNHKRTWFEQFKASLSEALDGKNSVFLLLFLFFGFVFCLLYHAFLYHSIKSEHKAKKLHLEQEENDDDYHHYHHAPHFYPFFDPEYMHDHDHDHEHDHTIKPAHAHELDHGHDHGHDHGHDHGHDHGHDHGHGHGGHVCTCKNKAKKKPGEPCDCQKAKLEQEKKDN

Assay [1] concerns the target GFP-tagged GEXP10/CX3CL1-binding protein 1 (CBP1) (Plasmodium falciparum 3D7) (UniProt Q8I2D9). The assay is described as follows: co-IP; GFP-Trap IP from infected RBCs solubilised in 1% Triton X-100; SDS-PAGE and Western blot probed with anti-MAHRP1; input loading 4% of the pellet loading. On the technique in general: A western blot detects proteins with antibodies after separation by electrophoresis.

Assay [2] addresses GFP-tagged gametocyte exported protein 7 (GEXP07)/CX3CL1-binding protein 2 (CBP2) (Plasmodium falciparum 3D7) (UniProt Q8IEJ0). Described as above.

As to “membrane-associated histidine-rich protein 1 (MAHRP1) (from UniProt Q6V0W7 1-249)”, the binding entry in assay [1] and in assay [2] was “binds” in each case.

The record behind these values is publication PMC7078486.
